Test results from PubChem BioAssay AID504834 (National Center for Advancing Translational Sciences (NCATS), 2011).
Out of some 320,000 compounds screened, about 22,000 (6.9%) were called active. Inconclusive results, whose numbers are uncertain, are shown with a selection of clear calls. Calls come from the whole dose curve; as a rule, active = well fitted inhibition curve with a large enough effect; inconclusive = small, poorly fitted or top-dose-only effect, or another doubt; inactive = no such curve, though single readings can be large or run the other way. Potencies of inconclusive entries are doubtful fits and often do not repeat.

Assay: Primary qHTS for delayed death inhibitors of the malarial parasite plastid, 96 hour incubation
Details: P. falciparum luciferase reporter growth; series mostly up to 28.7 µM; activity change, negative = inhibition: at the top concentration
Summary of the method: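 Plates of compound plus infected erythrocytes (2% hematocrit, 0.05% parasitemia final) incubate 96 hours, 37 C, 5% CO2. Detection reagent added; reduced luminescence from the parasites' luciferase reporter flags inhibition.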
% is set by controls: 0 for no effect and ±100 for the full control effect; potency is the fitted concentration of half-maximal effect.

Row | Structure (SMILES) | Potency | activity change, negative = inhibition
1 | Cc1cc(=O)oc(C)c1C(=O)OCC(=O)c1ccc(Br)cc1 | inconclusive: 18.5 µM [inhibitor, partial curve, poor fit] | –
2 | CC(C)(C)c1ccc(C2(C)NC(=O)N(CC(=O)NCc3cccs3)C2=O)cc1 (stereo not given) | inconclusive: 2.62 µM [inhibitor, partial curve, poor fit] | –
3 | Cc1cc(C(=O)CSc2cccc[n+]2[O-])c(C)n1-c1ccc(OC(F)F)cc1 | inconclusive: 3.7 µM [inhibitor, full curve] | –
4 | Cc1cc2ncn(S(=O)(=O)c3ccc(F)cc3)c2cc1C | inconclusive: 14.7 µM [inhibitor, single point] | –
5 | O=C(Cn1nc(-c2ccccc2Cl)ccc1=O)Nc1ccc(Br)cc1 | inconclusive: 18.5 µM [inhibitor, single point] | –
6 | Cc1ccccc1CN1CCNCC1 | – | inactive: 6.93%
7 | O=c1cc(N2CCCCC2)c(-c2ccccc2)nn1Cc1ccc(F)cc1 | active: 13.1 µM | –
8 | CC1(C(=O)N2CCC(CO)(Cc3cccc(C(F)(F)F)c3)CC2)CC1 | active: 16.5 µM | –
9 | C[C@@H]1C[C@@H]([C@H](O)CC2CC(=O)NC(=O)C2)C(=O)[C@@H](C)C1 | active: 0.104 µM | –
10 | Cc1ccccc1C(=O)c1c[nH]c(C(=O)N2CCN(c3ccccc3F)CC2)c1 | inconclusive: 3.7 µM [inhibitor, full curve, poor fit] | –
11 | O=C(O)CCn1c(CO)nc2ccccc21 | – | inactive: 60.5%
12 | CC(C)(C)OC(=O)N1CCC[C@H]1C(=O)NCc1ccc(Cl)cc1Cl | inconclusive: 9.28 µM [inhibitor, partial curve, poor fit] | –
13 | Cc1c(C(=O)NCc2nnc(-c3ccccc3)o2)oc2c(F)cccc12 | – | inactive: 0.531%
14 | CC1CCN(S(=O)(=O)c2cc([N+](=O)[O-])ccc2Cl)CC1 | – | inactive: -4.89%
15 | Cc1ccc(OCCN2CCN(C(=O)CCC(=O)Nc3nnc(CC(C)C)s3)CC2)cc1 | active: 0.329 µM | –
16 | O=C(CSc1ccc(-c2nc3ccccc3[nH]2)cn1)Nc1ccc(S(=O)(=O)N2CCCC2)cc1 | inconclusive: 8.28 µM [inhibitor, partial curve] | –
17 | Cc1nc2sc(C(c3ccccc3)N3CCN(CCO)CC3)c(O)n2n1 (stereo not given) | inconclusive: 10.4 µM [inhibitor, single point] | –
18 | Cc1ccc(OCC(=O)Nc2c(C)ccc3nsnc23)cc1 | – | inactive: -14.8%
19 | O=S(=O)(Nc1nc2ccccc2s1)c1cc(F)ccc1F | inconclusive: 18.5 µM [inhibitor, partial curve, poor fit] | –
20 | Cc1ccc([N+](=O)[O-])cc1S(=O)(=O)Nc1ccc(C(=O)NCC2CCCO2)cc1 (stereo not given) | – | inactive: 7.92%
21 | Cc1cc(C)c(OCC(=O)NCC2COc3ccccc3O2)c(C)c1 (stereo not given) | inconclusive: 0.465 µM [inhibitor, partial curve, poor fit] | –
22 | CCOc1cc(C2C(C#N)=C(N)OC(C)=C2C(C)=O)c(Br)c(Br)c1OC(C)C (stereo not given) | active: 8.28 µM | –
23 | O=C(/C=C/c1cccc([N+](=O)[O-])c1)NCCSCc1ccccc1Cl | active: 2.94 µM | –
24 | CCN(CC)CCCNC(=O)c1ccccc1NC(=O)C1=CSCCO1 | – | inactive: 11%
25 | O=C(c1ccc(CNc2c(N3CCCC3)c(=O)c2=O)cc1)N1CCc2ccccc2C1 | inconclusive: 18.5 µM [inhibitor, single point] | –

2 compounds drawn at random from the list so far:
Row | Structure (SMILES) | Potency | activity change, negative = inhibition
15 | Cc1ccc(OCCN2CCN(C(=O)CCC(=O)Nc3nnc(CC(C)C)s3)CC2)cc1 | active: 0.329 µM | –
24 | CCN(CC)CCCNC(=O)c1ccccc1NC(=O)C1=CSCCO1 | – | inactive: 11%

(cont.)

Row | Structure (SMILES) | Potency | activity change, negative = inhibition
26 | Cc1c(CCOC(=O)C23CC4CC(CC(C4)C2)C3)sc[n+]1Cc1ccccc1 | – | inactive: 45.9%
27 | Cn1c(=O)n(CCc2ccccc2)c(=O)c2c1ncn2Cc1ccccc1 | – | inactive: 222%
28 | Cc1cccc(C)c1OCCOCCN1CCN(C)CC1 | – | inactive: -21.8%
29 | O=c1c2ccccc2nc2c3ccccc3c(NCc3ccco3)nn12 | – | inactive: -6.59%
30 | CCN(CC)C(=O)Oc1ccc(Br)c2ccccc12 | inconclusive: 13.1 µM [inhibitor, single point] | –
31 | COC(=O)c1ccc(NC2=C(Cl)C(=O)OC2OC(=O)c2ccccc2)cc1 (stereo not given) | – | inactive: 51.7% [at 1.15 µM]
32 | COc1ccc(N(CC(=O)N/N=C/c2ccc3c(c2)OCO3)S(=O)(=O)c2ccc(NC(C)=O)cc2)cc1 | inconclusive: 18.5 µM [inhibitor, single point] | –
33 | CCn1c(COc2ccccc2)nnc1SCC(=O)C(C)(C)C | active: 9.28 µM | –
34 | CC(=O)c1ccc2c(c1)C1C=CCC1C(c1ccncc1)N2 (stereo not given) | – | inactive: 132%
35 | Cc1cc(=O)nc2c3ccccc3n(CC(=O)NCCCN3CCCCC3C)n12 (stereo not given) | inconclusive: 10.4 µM [inhibitor, single point] | –
36 | COc1ccc(Cl)cc1NC(=O)CSc1nnc(CNC(=O)c2cccs2)o1 | inconclusive: 7.38 µM [inhibitor, partial curve] | –
37 | Cc1n[nH]c(C)c1S(=O)(=O)N1CCC(C(=O)Nc2cccc(F)c2)CC1 | inconclusive: 9.28 µM [inhibitor, partial curve] | –
38 | Cc1ccc(OCc2cc(C(=O)N(C)CCc3ccccn3)no2)cc1C | – | inactive: -19.5%
39 | COC(=O)CSC1=C(C#N)C(c2cccc(F)c2)CC(=O)N1 (stereo not given) | inconclusive: 0.104 µM [inhibitor, full curve, poor fit] | –
40 | C=CC[C@H]1CC(Cc2ccccc2)=C[C@H](CC=C)N1 | active: 0.0738 µM | –
41 | COc1cc(OC)cc(C(=O)N[C@H](C(=O)OCC(=O)Nc2ccc(F)c(F)c2)C(C)C)c1 | – | inactive: -6.99%
42 | CCOC(=O)c1cnc(-c2ccccc2)nc1Oc1ccc(OC)cc1 | active: 5.22 µM | –
43 | COC(=O)C(Cc1c[nH]c2ccccc12)NC(=O)C(=O)c1c[nH]c2ccccc12 (stereo not given) | inconclusive: 18.5 µM [inhibitor, single point] | –
44 | Nc1nc(C(F)(F)F)cc(=O)n1N | – | inactive: -3.09%
45 | CCc1cc(/C(Cc2cscn2)=N\O)c(O)cc1O | – | inactive: -16.6%
46 | Cc1c(C)c2ccc(OC(C)C(=O)N[C@@H](Cc3c[nH]c4ccccc34)C(=O)O)c(C)c2oc1=O (stereo not given in full) | – | inactive: 37.4%
47 | CN(C)c1ccc(S(=O)(=O)NCC(=O)NCc2ccccc2)cc1[N+](=O)[O-] | inconclusive: 10.4 µM [inhibitor, partial curve, poor fit] | –
48 | C=CCNC(=O)/C(C#N)=C/c1c(N2CCN(c3cccc(Cl)c3)CC2)nc2c(C)cccn2c1=O | inconclusive: 18.5 µM [inhibitor, single point] | –
49 | COc1ccc(N2C(=O)C3CCCN3C2c2ccc(C)cc2)cc1Cl (stereo not given) | inconclusive: 13.1 µM [inhibitor, single point] | –
50 | CC(=O)c1cnc2c(-c3ccc(Cl)cc3)cnn2c1C | – | inactive: 1.99%

Row | Structure (SMILES) | Potency | activity change, negative = inhibition
51 | CCCCCCn1c(SCC(C)C)nc2c1c(=O)[nH]c(=O)n2C | inconclusive: 13.1 µM [inhibitor, single point] | –
52 | O=C(/C=C/Nc1ccc(F)c(Cl)c1)c1ccccc1 | – | inactive: 330%
53 | CCOC(=O)C1CCCN(C(=O)CSc2ccc(NC(C)=O)cc2)C1 (stereo not given) | inconclusive: 2.33 µM [inhibitor, partial curve, poor fit] | –
54 | O=C(c1cc(-c2ccco2)on1)N1CCN(c2ccccc2)CC1 | inconclusive: 18.5 µM [inhibitor, single point] | –
55 | NC(=S)N=Nc1c(O)n(Cc2ccc(F)cc2)c2ccccc12 | inconclusive: 18.5 µM [inhibitor, single point] | –
56 | Cc1nnc(SCSc2nnc(C)s2)s1 | – | inactive: -19.7%
57 | Cc1ccc(S(=O)(=O)N2CCCCC2CCNC(=O)C(=O)NCc2ccco2)cc1 (stereo not given) | inconclusive: 14.7 µM [inhibitor, single point] | –
58 | COc1ccc(N2CCN(C(=O)COC(=O)c3oc4ccccc4c3C)CC2)cc1 | – | inactive: -2.49%
59 | CCOC(=O)C(CC)Sc1ccc2nnc(CCNS(=O)(=O)c3ccccc3)n2n1 (stereo not given) | inconclusive: 0.522 µM [inhibitor, full curve, poor fit] | –
60 | C#CCSC1=C(C#N)C(c2cccs2)C(C(=O)OCC)=C(C)N1 (stereo not given) | – | inactive: 2.76%
61 | COc1ccc(-c2nc3ccccn3c2C=O)cc1 | – | inactive: 55.3%
62 | CCOC(=O)CC1(NC(=O)c2cc(COc3cncc(Cl)c3)on2)CCCCC1 | – | inactive: -28.6%
63 | CCn1cc(/C=N\NC(=O)c2csc3ccccc23)c(C)n1 | – | inactive: -6.45%
64 | CCOC(=O)c1ccc(Oc2coc3cc(O)ccc3c2=O)cc1 | active: 2.94 µM | –
65 | CC1(C)CC(=O)C(C=NCCN2CCN(C(=O)CC3CCCC3)CC2)=C(O)C1 | inconclusive: 18.5 µM [inhibitor, single point] | –
66 | Cc1c(N=C2SCC(=O)N2/N=C/c2ccccc2)c(=O)n(-c2ccccc2)n1C | – | inactive: 41.5%
67 | CC1CCCC(C)N1CC(O)COc1c(F)cc(Br)cc1F (stereo not given) | inconclusive: 13.1 µM [inhibitor, single point] | –
68 | Cc1ccc(N2C(=O)c3ccccc3NC2C(C)Cc2ccc3c(c2)OCO3)cc1 (stereo not given) | inconclusive: 18.5 µM [inhibitor, single point] | –
69 | Cc1ccc2cccnc2c1NC(=S)NC(=O)c1ccccc1 | inconclusive: 18.5 µM [inhibitor, single point] | –
70 | O=C(Nc1cccc(Cl)c1)C1CCCN(S(=O)(=O)c2cnc[nH]2)C1 (stereo not given) | inconclusive: 9.28 µM [inhibitor, partial curve, poor fit] | –
71 | O=C(COC(=O)c1cccc([N+](=O)[O-])c1)NCC1CCCO1 (stereo not given) | – | inactive: 32.8%
72 | CN1C(=O)NC(c2ccccc2[N+](=O)[O-])C2=C1CC(C)(C)CC2=O (stereo not given) | active: 9.28 µM | –
73 | COc1cc(/C=C(\C#N)c2ccccn2)ccc1OCC(=O)Nc1ccc(Br)cc1 | – | inactive: 19.4%
74 | O=C(c1cc(=O)[nH]c2ccccc12)N1CCN(c2ccc([N+](=O)[O-])cc2)CC1 | inconclusive: 0.0738 µM [inhibitor, full curve, poor fit] | –
75 | CCOC(=O)c1cnc(-n2nc(C)cc2C)nc1NC(C)c1ccccc1 (stereo not given) | inconclusive: 2.08 µM [inhibitor, full curve, poor fit] | –

Exported as labelled records: 3 of the compounds above.
COc1ccc(N2CCN(C(=O)COC(=O)c3oc4ccccc4c3C)CC2)cc1
  activity change, negative = inhibition: inactive: -2.49%
CCOC(=O)CC1(NC(=O)c2cc(COc3cncc(Cl)c3)on2)CCCCC1
  activity change, negative = inhibition: inactive: -28.6%
Cc1c(N=C2SCC(=O)N2/N=C/c2ccccc2)c(=O)n(-c2ccccc2)n1C
  activity change, negative = inhibition: inactive: 41.5%
